Binding data for 4 molecules are collected here from article PMC11374660, “The novel family of Warbicin® compounds inhibits glucose uptake both in yeast and human cells and restrains cancer cell proliferation” (Frontiers in Oncology, 2024).

For assay [1], the target named is T1, GST-Hxk2 (GST-labeled yeast hexokinase Hxk2) (S. cerevisiae) (UniProt P04807).
T1 sequence: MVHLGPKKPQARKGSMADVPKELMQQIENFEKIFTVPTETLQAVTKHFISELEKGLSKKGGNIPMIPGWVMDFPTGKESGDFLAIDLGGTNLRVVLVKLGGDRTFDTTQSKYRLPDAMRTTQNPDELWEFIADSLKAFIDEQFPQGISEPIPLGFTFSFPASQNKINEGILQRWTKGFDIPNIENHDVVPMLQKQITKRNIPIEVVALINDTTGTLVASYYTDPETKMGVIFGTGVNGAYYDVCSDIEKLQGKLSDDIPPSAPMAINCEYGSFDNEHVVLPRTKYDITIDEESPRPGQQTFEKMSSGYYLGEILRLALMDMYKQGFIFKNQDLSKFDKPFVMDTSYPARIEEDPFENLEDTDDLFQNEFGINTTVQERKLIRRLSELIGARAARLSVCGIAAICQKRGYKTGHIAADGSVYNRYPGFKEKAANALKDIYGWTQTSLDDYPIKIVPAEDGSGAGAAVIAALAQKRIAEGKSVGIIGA
Put plainly: pull-down; GST-Hxk2 on Glutathione Sepharose 4B beads (25 µL) incubated with about 1 mg yeast protein extract overnight at 4°C; lysis buffer 50 mM Tris-HCl pH 7.5, 150 mM NaCl, 5% glycerol, 1 mM EDTA, 2.5 mM MgCl2, 1% Triton X-100; three washes; Hxt7-HA detected by anti-HA western blot; only the target purified. On the technique in general: In western blotting, separated proteins are transferred to a membrane and probed.

The target in assay [2] is T2, Hxt7-NCitr (Hxt7 fused to the N-terminal part of Citrine) (S. cerevisiae) (UniProt P39004).
T2 sequence: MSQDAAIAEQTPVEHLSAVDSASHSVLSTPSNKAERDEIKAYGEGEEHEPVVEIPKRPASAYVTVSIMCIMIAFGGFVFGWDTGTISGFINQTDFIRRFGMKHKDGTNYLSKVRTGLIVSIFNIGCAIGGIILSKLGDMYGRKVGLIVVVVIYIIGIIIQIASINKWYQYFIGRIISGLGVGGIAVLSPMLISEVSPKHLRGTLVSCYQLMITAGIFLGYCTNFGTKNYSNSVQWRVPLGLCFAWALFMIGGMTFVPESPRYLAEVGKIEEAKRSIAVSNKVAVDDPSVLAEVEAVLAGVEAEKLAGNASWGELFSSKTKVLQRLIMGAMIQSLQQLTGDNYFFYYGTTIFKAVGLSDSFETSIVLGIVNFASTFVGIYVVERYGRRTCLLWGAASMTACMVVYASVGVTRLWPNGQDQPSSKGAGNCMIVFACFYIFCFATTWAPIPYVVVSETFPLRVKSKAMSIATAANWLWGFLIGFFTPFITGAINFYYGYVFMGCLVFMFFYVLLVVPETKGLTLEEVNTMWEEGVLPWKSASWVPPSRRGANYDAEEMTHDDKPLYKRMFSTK
Put plainly: split reporter; BiFC with split Citrine halves (NCitr 1-154, CCitr 155-236) in living yeast cells, confocal fluorescence microscopy; cells (pre)grown on YP with 325 mM glycerol and 430 mM ethanol.

No constants are given. Whether binding was seen depends on the method and setting. Binding seen in cells or lysates may run through a third protein. Some results given as binding are weak or reduced against the parent protein; the word gives no strength. Where a sequence is shown, tags or fusion partners need not be part of it.

B1: Hxt7-HA (HA-labeled yeast Hxt7 glucose carrier) (protein, UniProt P39004 1-570)
chain: MSQDAAIAEQTPVEHLSAVDSASHSVLSTPSNKAERDEIKAYGEGEEHEPVVEIPKRPASAYVTVSIMCIMIAFGGFVFGWDTGTISGFINQTDFIRRFGMKHKDGTNYLSKVRTGLIVSIFNIGCAIGGIILSKLGDMYGRKVGLIVVVVIYIIGIIIQIASINKWYQYFIGRIISGLGVGGIAVLSPMLISEVSPKHLRGTLVSCYQLMITAGIFLGYCTNFGTKNYSNSVQWRVPLGLCFAWALFMIGGMTFVPESPRYLAEVGKIEEAKRSIAVSNKVAVDDPSVLAEVEAVLAGVEAEKLAGNASWGELFSSKTKVLQRLIMGAMIQSLQQLTGDNYFFYYGTTIFKAVGLSDSFETSIVLGIVNFASTFVGIYVVERYGRRTCLLWGAASMTACMVVYASVGVTRLWPNGQDQPSSKGAGNCMIVFACFYIFCFATTWAPIPYVVVSETFPLRVKSKAMSIATAANWLWGFLIGFFTPFITGAINFYYGYVFMGCLVFMFFYVLLVVPETKGLTLEEVNTMWEEGVLPWKSASWVPPSRRGANYDAEEMTHDDKPLYKRMFSTK
In the case of B1, the binding result in assay [1] is “binds”.

B2: Glk1-CCitr (glucokinase Glk1 fused to the C-terminal part of Citrine) (enzyme, UniProt P17709 1-500)
chain: MSFDDLHKATERAVIQAVDQICDDFEVTPEKLDELTAYFIEQMEKGLAPPKEGHTLASDKGLPMIPAFVTGSPNGTERGVLLAADLGGTNFRICSVNLHGDHTFSMEQMKSKIPDDLLDDENVTSDDLFGFLARRTLAFMKKYHPDELAKGKDAKPMKLGFTFSYPVDQTSLNSGTLIRWTKGFRIADTVGKDVVQLYQEQLSAQGMPMIKVVALTNDTVGTYLSHCYTSDNTDSMTSGEISEPVIGCIFGTGTNGCYMEEINKITKLPQELRDKLIKEGKTHMIINVEWGSFDNELKHLPTTKYDVVIDQKLSTNPGFHLFEKRVSGMFLGEVLRNILVDLHSQGLLLQQYRSKEQLPRHLTTPFQLSSEVLSHIEIDDSTGLRETELSLLQSLRLPTTPTERVQIQKLVRAISRRSAYLAAVPLAAILIKTNALNKRYHGEVEIGCDGSVVEYYPGFRSMLRHALALSPLGAEGERKVHLKIAKDGSGVGAALCALVA
In the case of B2, the binding result in assay [2] is “binds”.

B3: Hxk2-CCitr (Hxk2 fused to the C-terminal part of Citrine) (enzyme, UniProt P04807 1-486)
chain: MVHLGPKKPQARKGSMADVPKELMQQIENFEKIFTVPTETLQAVTKHFISELEKGLSKKGGNIPMIPGWVMDFPTGKESGDFLAIDLGGTNLRVVLVKLGGDRTFDTTQSKYRLPDAMRTTQNPDELWEFIADSLKAFIDEQFPQGISEPIPLGFTFSFPASQNKINEGILQRWTKGFDIPNIENHDVVPMLQKQITKRNIPIEVVALINDTTGTLVASYYTDPETKMGVIFGTGVNGAYYDVCSDIEKLQGKLSDDIPPSAPMAINCEYGSFDNEHVVLPRTKYDITIDEESPRPGQQTFEKMSSGYYLGEILRLALMDMYKQGFIFKNQDLSKFDKPFVMDTSYPARIEEDPFENLEDTDDLFQNEFGINTTVQERKLIRRLSELIGARAARLSVCGIAAICQKRGYKTGHIAADGSVYNRYPGFKEKAANALKDIYGWTQTSLDDYPIKIVPAEDGSGAGAAVIAALAQKRIAEGKSVGIIGA
Take B3: in assay [2], the binding result is given as “binds”.

B4: Hxk1-CCitr (Hxk1 fused to the C-terminal part of Citrine) (enzyme, UniProt P04806 1-485)
chain: MVHLGPKKPQARKGSMADVPKELMDEIHQLEDMFTVDSETLRKVVKHFIDELNKGLTKKGGNIPMIPGWVMEFPTGKESGNYLAIDLGGTNLRVVLVKLSGNHTFDTTQSKYKLPHDMRTTKHQEELWSFIADSLKDFMVEQELLNTKDTLPLGFTFSYPASQNKINEGILQRWTKGFDIPNVEGHDVVPLLQNEISKRELPIEIVALINDTVGTLIASYYTDPETKMGVIFGTGVNGAFYDVVSDIEKLEGKLADDIPSNSPMAINCEYGSFDNEHLVLPRTKYDVAVDEQSPRPGQQAFEKMTSGYYLGELLRLVLLELNEKGLMLKDQDLSKLKQPYIMDTSYPARIEDDPFENLEDTDDIFQKDFGVKTTLPERKLIRRLCELIGTRAARLAVCGIAAICQKRGYKTGHIAADGSVYNKYPGFKEAAAKGLRDIYGWTGDASKDPITIVPAEDGSGAGAAVIAALSEKRIAEGKSLGIIGA
As to B4, the binding result in assay [2] was “binds”.
